The target of this test is T1, non-POU domain containing octamer binding (NONO) protein (human (endogenous in NCI-N87, AGS and MKN-45)) (UniProt Q15233).
T1 sequence: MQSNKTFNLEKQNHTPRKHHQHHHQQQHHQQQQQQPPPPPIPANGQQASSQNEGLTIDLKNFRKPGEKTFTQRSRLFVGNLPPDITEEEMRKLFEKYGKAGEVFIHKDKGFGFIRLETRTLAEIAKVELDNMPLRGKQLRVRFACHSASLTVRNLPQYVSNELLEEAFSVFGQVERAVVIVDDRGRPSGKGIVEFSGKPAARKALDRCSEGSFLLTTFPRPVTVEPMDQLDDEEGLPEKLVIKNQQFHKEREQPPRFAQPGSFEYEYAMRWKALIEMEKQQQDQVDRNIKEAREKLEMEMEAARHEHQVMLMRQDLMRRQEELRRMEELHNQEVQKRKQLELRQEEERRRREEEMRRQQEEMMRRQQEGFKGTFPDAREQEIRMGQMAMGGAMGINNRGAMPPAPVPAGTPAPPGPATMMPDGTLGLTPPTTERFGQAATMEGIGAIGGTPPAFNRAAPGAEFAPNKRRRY
Description: affinity purification with mass spectrometry; IP of NONO from NCI-N87 cells stably transfected with empty vector (mock) or pancEts-1; Coomassie blue staining and mass spectrometry.

These are yes or no findings as the source states them, for the method shown. In cells and extracts the contact can be indirect. Here binding means that the protein was enriched with, or labelled near, the bait; the list need not be complete.

B1: Ets related gene (ERG) (protein, UniProt P11308-3 1-486)
chain: MIQTVPDPAAHIKEALSVVSEDQSLFECAYGTPHLAKTEMTASSSSDYGQTSKMSPRVPQQDWLSQPPARVTIKMECNPSQVNGSRNSPDECSVAKGGKMVGSPDTVGMNYGSYMEEKHMPPPNMTTNERRVIVPADPTLWSTDHVRQWLEWAVKEYGLPDVNILLFQNIDGKELCKMTKDDFQRLTPSYNADILLSHLHYLRETPLPHLTSDDVDKALQNSPRLMHARNTGGAAFIFPNTSVYPEATQRITTRPDLPYEPPRRSAWTGHGHPTPQSKAAQPSPSTVPKTEDQRPQLDPYQILGPTSSRLANPGSGQIQLWQFLLELLSDSSNSSCITWEGTNGEFKMTDPDEVARRWGERKSKPNMNYDKLSRALRYYYDKNIMTKVHGKRYAYKFDFHGIAQALQPHPPESSLYKYPSDLPYMGSYHAHPQKMNFVAPHPPALPVTSSSFFAAPNPYWNSPTGGIYPNTRLPTSHMPSHLGTYY
Turning to B1, the binding entry was “binds”.

Source of the values: publication PMC6117270.
